Data published in paper PMC6294559.
Results are given in words; binding and its absence hold for the method and conditions named. A result given as binding can be weak or reduced; the word gives no strength.

Legend:
[1] = biological target: T1, HAC1 TAZ^C (1575-1667 aa) (Arabidopsis) (UniProt Q9C5X9); experiment: two-hybrid; NPR1 fragments in pGADT7, HAC1 fragments in pGBKT7, yeast strain AH109; growth on drop-out medium lacking leucine, tryptophan, adenine and histidine with 1 or 3 mM 3-AT
T1 sequence: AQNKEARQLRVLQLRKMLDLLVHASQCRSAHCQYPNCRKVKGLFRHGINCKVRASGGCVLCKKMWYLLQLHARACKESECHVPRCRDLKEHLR

[2] = biological target: T2, HAC1 TAZ^N (624-716 aa) (Arabidopsis) (UniProt Q9C5X9); experiment: as above
T2 sequence: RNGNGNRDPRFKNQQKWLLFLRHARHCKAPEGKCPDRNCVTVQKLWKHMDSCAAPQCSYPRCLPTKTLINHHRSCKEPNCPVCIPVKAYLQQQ

C-terminal region of NPR1 (Arabidopsis) (domain or fragment)
binding [1]: binds | binding [2]: binds
